# From PubChem BioAssay AID504834 (National Center for Advancing Translational Sciences (NCATS), 2011)
# Hit rate of the full screen: of about 320,000 compounds, about 22,000 (6.9%) were called active. Inconclusive results, whose numbers are uncertain, are shown with a selection of clear calls. The call rests on the fitted dose curve; in most records, active means well fitted inhibition curve with a large enough effect; inconclusive means small, poorly fitted or top-dose-only effect, or another doubt; inactive means no such curve, though single readings can be large or run the other way. Potencies of inconclusive entries are doubtful fits and often do not repeat.
# Assay: Primary qHTS for delayed death inhibitors of the malarial parasite plastid, 96 hour incubation
# Settings: P. falciparum luciferase reporter growth; series mostly up to 28.7 µM
# In short: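 Parasite growth measured via integrated firefly luciferase reporter in P. falciparum. Infected erythrocytes at 2% hematocrit, 0.05% parasitemia final were treated 96 hours at 37 C under 5% CO2, and luminescence was read.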
# Potency means the concentration at half of the fitted maximal effect.
row,Compound,Potency
1,CCCCn1c(N)c(N(CC)C(=O)Cc2ccc(S(=O)(=O)N3CCOCC3)s2)c(=O)[nH]c1=O,inactive
2,Cc1cccc(OCc2nc(C#N)c(N3CCCC3)o2)c1,"inconclusive: 18.5 µM [inhibitor, single point]"
3,COC(=O)C1NN=C(C(=O)c2ccc(Br)cc2)C1c1cccc(Br)c1 (centres undefined),"inconclusive: 14.7 µM [inhibitor, single point]"
4,O=C(NCc1ccccc1)C1=C[C@H](c2csc3ccccc23)C[C@H](OCCCCO)O1,"inconclusive: 7.38 µM [inhibitor, partial curve, poor fit]"
5,Cc1cccc(-n2c(N)cc(=O)nc2SCC(=O)Nc2nnc(CC(C)C)s2)c1,"inconclusive: 18.5 µM [inhibitor, single point]"
6,O=C(CSc1nnc(COc2ccccc2)o1)N1CCOCC1,inactive
7,CC(C)NC(=O)NC1C2CC3CC(C2)CC1C3 (centres undefined),active: 10.4 µM
8,CCCC(=O)N1CCC(Cc2ccccc2)CC1,"inconclusive: 11.7 µM [inhibitor, single point]"
9,O=c1c2cc(N3CCOCC3)ccc2[nH]c(=S)n1CC1CCCO1 (centres undefined),inactive
10,O=c1cc[nH]c2c(Cl)cccc12,inactive
11,COc1cc(NC(=O)CNc2ccc(Cl)c(S(=O)(=O)N3CCOCC3)c2)cc(OC)c1,"inconclusive: 1.47 µM [inhibitor, full curve]"
12,CC(C)CN1CCC(=O)N([C@H](CO)c2ccccc2)CC1,inactive
13,CCOC(=O)[C@@H]1[C@H]2COc3ccc(Br)cc3[C@H]2N2C(=O)N(c3cccc(F)c3)C(=O)[C@]12C,active: 13.1 µM
14,CCCCCC(C)NC(=O)c1cc(S(=O)(=O)N2CCCCC2)ccc1N1CCOCC1 (centres undefined),"inconclusive: 7.38 µM [inhibitor, partial curve, poor fit]"
15,C=CCNc1nc(-c2sc(NC(=O)CC)nc2C)cs1,inactive
16,COc1ccc(C2CC(=O)N3CN(Cc4ccco4)CSC3=C2C#N)cc1 (centres undefined),"inconclusive: 4.65 µM [inhibitor, partial curve]"
17,CC(C)(C)NC(=O)C(OC(=O)c1ccco1)c1ccc(Cl)cc1 (centres undefined),"inconclusive: 18.5 µM [inhibitor, single point]"
18,Cn1c(=O)cc(SCC(=O)NCc2ccco2)c2ccccc21,inactive
19,COc1ccc2c(c1)O/C(=C\c1ccccc1C)C2=O,inactive
20,Cc1nc(Nc2ccccc2)sc1-c1ccccc1,inactive
21,COc1ccc2nc(C)cc(Nc3ccc(N4CCOCC4)cc3)c2c1,inactive
22,OCc1nc2ccccc2n1Cc1ccc(Cl)cc1,inactive
23,CCOc1ccc(/C=C/c2nc(C#N)c(NCCCN(C)C)o2)cc1,inactive
24,Cc1ccc(S(=O)(=O)N(C)CC(=O)N2CCN(c3ccccn3)CC2)cc1,"inconclusive: 0.522 µM [inhibitor, full curve]"
25,CC/C(=N/Nc1ccc(Cl)cc1)c1cnnc(SC)n1,"inconclusive: 10.4 µM [inhibitor, single point]"

# Arranged by number of heavy atoms (ascending): three of the compounds above.
row,Compound,Potency
2,Cc1cccc(OCc2nc(C#N)c(N3CCCC3)o2)c1,"inconclusive: 18.5 µM [inhibitor, single point]"
3,COC(=O)C1NN=C(C(=O)c2ccc(Br)cc2)C1c1cccc(Br)c1 (centres undefined),"inconclusive: 14.7 µM [inhibitor, single point]"
11,COc1cc(NC(=O)CNc2ccc(Cl)c(S(=O)(=O)N3CCOCC3)c2)cc(OC)c1,"inconclusive: 1.47 µM [inhibitor, full curve]"

# (listing goes on)

row,Compound,Potency
1,O=C(Cn1cnc2c(nc3n2CCCCC3)c1=O)Nc1cccc(C(F)(F)F)c1,"inconclusive: 9.28 µM [inhibitor, partial curve]"
2,CCOC(=O)C1=C(C)OC(N)=C(C#N)C1c1cc(C)sc1C (centres undefined),inactive
3,O=C1c2ccccc2CCCC12N=NCC2c1cccc2ccccc12 (centres undefined),active: 1.85 µM
4,COCCNC(=O)CN1C(=O)CSc2ccc(S(=O)(=O)N3CCOCC3)cc21,"inconclusive: 10.4 µM [inhibitor, single point]"
5,O=c1[nH]c(/C=C\c2ccccc2F)nc(O)c1[N+](=O)[O-],active: 13.1 µM
6,CC(C)(C)[C@H]1C=C(C(=O)N2CCN(Cc3ccccc3)CC2)O[C@@H](OCCCCO)C1,"inconclusive: 10.4 µM [inhibitor, single point]"
7,CCOCCCNC(=O)Cc1ccc(F)cc1,"inconclusive: 11.7 µM [inhibitor, single point]"
8,O=C(NCCS(=O)(=O)N1CCN(c2ccccc2F)CC1)C1CC(=O)N(c2ccc(F)cc2)C1 (centres undefined),"inconclusive: 11.7 µM [inhibitor, partial curve, poor fit]"
9,COc1cc(/C=N/NC(=O)NC2CCCCC2)cc(OC)c1O,inactive
10,CCOC(=O)C1CCN(C(=O)COC(=O)c2ccc3[nH]c4c(c3c2)CCCC4)CC1,"inconclusive: 18.5 µM [inhibitor, single point]"
11,COc1cc(SC)ccc1C(=O)N(C)Cc1ccccc1,inactive
12,CC(=O)Nc1ccc(NC(=O)N2CCCCC2)cc1,inactive
13,CCc1nnc(NS(=O)(=O)c2ccc(NC(=O)/C=C/c3ccc(OC)cc3OC)cc2)s1,"inconclusive: 18.5 µM [inhibitor, single point]"
14,Cc1ccc(S(=O)(=O)NC2(C(F)(F)F)NC(=O)N(c3ccccc3F)C2=O)cc1 (centres undefined),inactive
15,Cc1cc(C(=O)CN2C(=O)NC(c3ccccc3)(c3ccccc3)C2=O)c(C)n1Cc1ccco1,inactive
16,CC(=O)c1cccc(OCc2cc(C(=O)NC(C)Cc3cccnc3)no2)c1 (centres undefined),"inconclusive: 3.7 µM [inhibitor, partial curve]"
17,COc1ccc(/C(C)=N/NC(=O)c2cc(-c3cccnc3)nc3ccccc23)cc1,inactive
18,CC1CCCCN1S(=O)(=O)c1cnc(Cl)c(Br)c1 (centres undefined),"inconclusive: 0.233 µM [inhibitor, full curve]"
19,COC(=O)C1=C(C(=O)OC)[C@@H]2Nc3ccccc3[C@@]23C[C@@H](C(=O)OC)N(C(C)=O)C3=N1,inactive
20,CC(C)NCC(=O)NC12CC3CC(CC(C3)C1)C2,"inconclusive: 13.1 µM [inhibitor, single point]"
21,O=C(CC1SC(=O)N(Cc2ccccc2)C1=O)Nc1nccs1 (centres undefined),"inconclusive: 10.4 µM [inhibitor, single point]"
22,CC(C)(C)c1csc(NC(=O)Cc2ccc(S(=O)(=O)N3CCOCC3)s2)n1,active: 10.4 µM
23,Cc1noc(NS(=O)(=O)c2ccc(NC(=O)C34CC5CC(C3)CC(n3cnc(Cl)n3)(C5)C4)cc2)c1C,inactive
24,COc1ccc(CCNC(=O)CCCc2nnc3n(C)c(=O)c4sccc4n23)cc1OC,"inconclusive: 11.7 µM [inhibitor, partial curve]"
